{"sequences": {"note": "Chains of the proteins cited; added tags and fusions are not shown.", "UniProt P60953": "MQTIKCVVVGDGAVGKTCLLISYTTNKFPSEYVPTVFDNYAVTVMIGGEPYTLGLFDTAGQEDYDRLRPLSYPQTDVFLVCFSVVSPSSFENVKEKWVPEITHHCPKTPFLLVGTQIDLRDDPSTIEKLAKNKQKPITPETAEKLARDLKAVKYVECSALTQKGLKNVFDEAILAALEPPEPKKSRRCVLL", "UniProt P46934": "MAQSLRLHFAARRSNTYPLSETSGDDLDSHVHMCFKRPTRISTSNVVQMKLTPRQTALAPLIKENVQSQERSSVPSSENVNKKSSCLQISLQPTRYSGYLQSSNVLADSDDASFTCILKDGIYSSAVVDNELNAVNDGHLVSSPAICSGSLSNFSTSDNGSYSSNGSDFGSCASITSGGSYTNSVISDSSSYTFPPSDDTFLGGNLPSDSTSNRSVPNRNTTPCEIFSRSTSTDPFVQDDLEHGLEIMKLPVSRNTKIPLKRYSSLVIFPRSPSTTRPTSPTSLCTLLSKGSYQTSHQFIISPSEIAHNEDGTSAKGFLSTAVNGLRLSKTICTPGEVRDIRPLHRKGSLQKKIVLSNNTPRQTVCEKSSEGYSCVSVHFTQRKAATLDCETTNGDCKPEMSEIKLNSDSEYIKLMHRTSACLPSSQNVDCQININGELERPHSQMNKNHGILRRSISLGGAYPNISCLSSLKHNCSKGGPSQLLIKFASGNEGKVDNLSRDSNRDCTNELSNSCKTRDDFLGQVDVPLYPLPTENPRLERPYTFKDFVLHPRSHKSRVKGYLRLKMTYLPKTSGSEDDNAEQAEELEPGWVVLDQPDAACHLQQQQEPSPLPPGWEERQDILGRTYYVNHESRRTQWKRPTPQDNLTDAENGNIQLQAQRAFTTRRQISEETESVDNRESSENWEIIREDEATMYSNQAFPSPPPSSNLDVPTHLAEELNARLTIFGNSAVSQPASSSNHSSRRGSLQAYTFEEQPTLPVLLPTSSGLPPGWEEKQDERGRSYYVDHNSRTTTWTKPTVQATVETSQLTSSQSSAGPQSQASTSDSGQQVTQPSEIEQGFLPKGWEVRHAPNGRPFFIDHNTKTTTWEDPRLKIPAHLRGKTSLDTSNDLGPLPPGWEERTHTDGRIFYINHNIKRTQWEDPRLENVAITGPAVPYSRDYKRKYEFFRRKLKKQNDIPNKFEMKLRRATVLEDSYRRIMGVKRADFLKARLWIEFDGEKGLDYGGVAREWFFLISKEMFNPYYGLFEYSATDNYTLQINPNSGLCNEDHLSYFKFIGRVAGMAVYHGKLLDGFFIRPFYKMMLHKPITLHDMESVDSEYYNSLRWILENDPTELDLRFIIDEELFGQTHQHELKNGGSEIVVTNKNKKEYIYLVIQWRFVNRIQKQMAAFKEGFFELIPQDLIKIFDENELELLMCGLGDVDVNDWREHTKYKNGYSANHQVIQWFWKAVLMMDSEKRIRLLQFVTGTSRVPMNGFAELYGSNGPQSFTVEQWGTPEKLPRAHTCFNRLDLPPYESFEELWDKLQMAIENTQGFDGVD"}, "source": "paper PMC10167344", "target": "T1, LAPTM5 overexpressed in L02 hepatocytes (bait of the IP-mass spectrometry) (not stated (human or mouse cDNA cloned)) (UniProt Q13571)", "T1 sequence": "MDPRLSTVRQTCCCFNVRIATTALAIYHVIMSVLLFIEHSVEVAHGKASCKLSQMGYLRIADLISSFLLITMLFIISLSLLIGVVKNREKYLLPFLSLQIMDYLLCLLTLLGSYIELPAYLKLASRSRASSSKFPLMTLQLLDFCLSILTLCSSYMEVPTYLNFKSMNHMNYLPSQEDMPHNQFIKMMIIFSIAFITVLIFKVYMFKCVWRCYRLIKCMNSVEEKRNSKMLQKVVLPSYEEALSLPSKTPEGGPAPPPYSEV", "assay": "affinity purification with mass spectrometry; LAPTM5 immunoprecipitated from Laptm5-overexpressing L02 hepatocytes, PAOA- or BSA-treated; LC-MS/MS; candidates present in the PAOA-treated group but diminished in the BSA-treated group, unique peptides >2", "note": "No constants are given. Whether binding was seen depends on the method and setting. Binding seen in cells or lysates may run through a third protein. These calls come from enrichment with a bait or labelling near it, and not all partners need be listed.", "data": [{"substance": "CDC42 (Cell Division Cycle 42; found by IP-MS of LAPTM5) (from UniProt P60953 1-191)", "values": [{"measurement": "binding", "result": "binds"}]}, {"substance": "NEDD4 (found by IP-MS of LAPTM5) (from UniProt P46934 1-1319) (enzyme)", "values": [{"measurement": "binding", "result": "binds"}]}]}
